PubChem BioAssay AID1259405, NCATS | 2018
Shown is one part, drawn at random, of about 50,000 reagents. About 4,000 of them (8%) were called active. 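Mouse siRNA library applied to hamster cells; one well for each siRNA.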 Entries without a mark were called inactive. The numbers tell different reagents against one gene apart.

Assay: 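Mouse-designed siRNAs used to find CHO productivity engineering targets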 (primary screen)
Cell system: Chinese hamster CHO-K1 ovary cells with stable secreted eGFP expression
Reagents: single siRNA against mouse genes, 0.8 pmol siRNA per well (2 µl of 400 nM stock)
Timing: 3 days
Detection: 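Per-well intracellular GFP measured by laser scanning cytometry, plus viability from ATP luminescence, each relative to plate median of non-targeting control wells, in %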
Direction: GFP, % of control: higher = more GFP per well, higher productivity; viability (ATP), % of control: higher = more viable cells (more ATP)
Active means: 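Called active when intracellular GFP, relative to negative control, is at or above 120%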

Gene	reagent no.	GFP, % of control	viability (ATP), % of control
Mep1a	1	77.3	105
Mep1a	2	44.7	60.2
Mep1a	3	81.8	61.8
A530053G22Rik	1	241 (active)	70.8
A530053G22Rik	2	76.1	84
A530053G22Rik	3	65.9	69.2
Rnf2	1	73.4	61.3
Rnf2	2	54.9	107
Rnf2	3	62.8	100
Samd13	1	135 (active)	52.6
Samd13	2	40.9	36.7
Samd13	3	57.7	55.8
Eif4ebp2	1	39.7	47.6
Eif4ebp2	2	101	82.7
Eif4ebp2	3	118	107
Il34	1	191 (active)	124
Il34	2	51.5	86.6
Il34	3	73.9	80.4
Fto	1	65.7	74.4
Fto	2	97.9	81.4
Fto	3	52.4	79
Tbc1d25	1	99	53.4
Tbc1d25	2	113	68.8
Tbc1d25	3	56.9	75.7
Stau2	1	77.3	99.1
Stau2	2	91.6	88.6
Stau2	3	61.3	60.1
Lman2l	1	69.6	65.1
Lman2l	2	70.1	44.3
Lman2l	3	74.3	68.8
Lrrc9	1	101	85.5
Lrrc9	2	72.1	93.4
Lrrc9	3	94.2	74.1
Ednrb	1	82.7	78.4
Ednrb	2	85.5	86.4
Ednrb	3	34.9	69.8
Cetn2	1	51.7	70.9
Cetn2	2	78.4	82.8
Ring1	1	65.5	84.2
Ring1	2	93.1	72.4
Ring1	3	81	76.2
Tmem222	1	53.4	52
Tmem222	2	78.1	106
Tmem222	3	104	77.1
Poc1b	1	35.1	34.1
Poc1b	2	61.1	86.2
Poc1b	3	152 (active)	140
Neu2	1	88.7	94.4
Neu2	2	94.7	52.3
Neu2	3	54.4	53.3
Ttc39b	1	99.4	102
Ttc39b	2	111	62.3
Ttc39b	3	52.6	38.9
Ttc39b	4	60	66.6
Ttc39b	5	92.8	80.8
Ttc39b	6	99	74.8
Birc6	1	81.4	102
Birc6	2	108	73
Birc6	3	61.2	42.1

Laid out differently: results already given.
Fto #1 — GFP, % of control = 65.7; viability (ATP), % of control = 74.4
Fto #2 — GFP, % of control = 97.9; viability (ATP), % of control = 81.4
Fto #3 — GFP, % of control = 52.4; viability (ATP), % of control = 79
Tbc1d25 #1 — GFP, % of control = 99; viability (ATP), % of control = 53.4
